From article PMC11377309
No constants are given. Whether binding was seen depends on the method and setting. Some binding calls cover weakened binding; strength is not graded here.

Amino acid sequences for entries named in this document (tags omitted). Residues count along the entry.
UniProt Q5KU26: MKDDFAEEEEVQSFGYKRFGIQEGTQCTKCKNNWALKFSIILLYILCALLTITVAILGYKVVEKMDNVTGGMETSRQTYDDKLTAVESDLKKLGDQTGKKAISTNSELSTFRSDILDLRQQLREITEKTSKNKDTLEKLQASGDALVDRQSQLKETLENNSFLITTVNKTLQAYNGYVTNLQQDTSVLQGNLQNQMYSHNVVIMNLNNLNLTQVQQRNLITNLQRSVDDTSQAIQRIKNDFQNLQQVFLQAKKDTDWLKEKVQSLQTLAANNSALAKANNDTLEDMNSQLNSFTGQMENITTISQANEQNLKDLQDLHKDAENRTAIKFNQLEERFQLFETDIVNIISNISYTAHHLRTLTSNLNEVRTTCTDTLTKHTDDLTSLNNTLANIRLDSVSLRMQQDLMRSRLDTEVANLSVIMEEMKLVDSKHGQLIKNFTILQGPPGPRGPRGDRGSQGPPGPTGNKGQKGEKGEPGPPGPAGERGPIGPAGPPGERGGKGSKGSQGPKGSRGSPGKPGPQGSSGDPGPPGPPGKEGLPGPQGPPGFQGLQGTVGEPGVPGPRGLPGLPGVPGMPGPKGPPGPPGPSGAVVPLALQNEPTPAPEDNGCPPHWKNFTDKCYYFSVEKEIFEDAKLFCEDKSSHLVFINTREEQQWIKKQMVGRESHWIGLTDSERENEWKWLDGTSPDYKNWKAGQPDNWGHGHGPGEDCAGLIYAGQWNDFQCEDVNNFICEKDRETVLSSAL
UniProt Q9UKJ1, residues 20-303: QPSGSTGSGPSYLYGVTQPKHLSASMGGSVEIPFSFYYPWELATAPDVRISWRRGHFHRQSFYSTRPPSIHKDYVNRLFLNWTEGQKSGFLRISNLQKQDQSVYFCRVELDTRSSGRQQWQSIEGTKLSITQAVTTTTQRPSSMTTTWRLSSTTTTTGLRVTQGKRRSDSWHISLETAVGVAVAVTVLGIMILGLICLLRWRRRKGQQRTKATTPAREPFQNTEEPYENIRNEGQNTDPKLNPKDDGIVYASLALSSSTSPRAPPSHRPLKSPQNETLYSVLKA
UniProt Q9UKJ0, residues 20-227: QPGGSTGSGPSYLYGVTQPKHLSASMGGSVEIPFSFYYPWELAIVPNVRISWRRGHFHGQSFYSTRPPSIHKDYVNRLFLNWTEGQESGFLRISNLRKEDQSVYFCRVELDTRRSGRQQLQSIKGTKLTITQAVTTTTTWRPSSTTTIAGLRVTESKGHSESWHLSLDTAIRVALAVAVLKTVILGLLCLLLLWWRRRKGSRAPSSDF

What was measured:
COLEC12 (human) = COLEC12 (human) (UniProt Q5KU26); experiment: Cell-Int (cell-cell conjugates counted by flow cytometry); two batches of 293-F cells, each transfected with one membrane protein and GFP or RFP, mixed in FreeStyle 293 Expression Medium, 1-2 h at 25°C (Juno/Izumo1 also at 4°C and 37°C and from 10 min to 3 h); percent GFP+ RFP+ double-positive events
NPDC-1 (human) = target: T1, NPDC-1 (human) (UniProt Q9NQX5); experiment: as above
T1 sequence: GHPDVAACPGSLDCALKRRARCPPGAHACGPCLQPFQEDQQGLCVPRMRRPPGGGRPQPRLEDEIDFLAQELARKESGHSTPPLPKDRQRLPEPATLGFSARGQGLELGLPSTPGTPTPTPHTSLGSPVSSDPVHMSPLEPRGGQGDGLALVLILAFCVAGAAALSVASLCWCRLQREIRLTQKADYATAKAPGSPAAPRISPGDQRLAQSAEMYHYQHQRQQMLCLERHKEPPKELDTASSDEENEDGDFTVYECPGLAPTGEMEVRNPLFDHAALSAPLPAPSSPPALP

Ly-6E (mouse) (mouse) = target: T2, Ly-6E (mouse) (mouse) (UniProt Q64253); experiment: Cell-Int (cell-cell conjugates counted by flow cytometry)
T2 sequence: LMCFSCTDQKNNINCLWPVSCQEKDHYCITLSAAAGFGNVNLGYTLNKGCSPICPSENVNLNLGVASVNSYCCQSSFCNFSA

[1] = target: T3, endogenous Ly-6E of 293T cells (human (endogenous in 293T)) (UniProt Q16553); experiment: as above
T3 sequence: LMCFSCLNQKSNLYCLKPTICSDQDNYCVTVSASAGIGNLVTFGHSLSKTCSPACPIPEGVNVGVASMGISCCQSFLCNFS

CD200R1 (human) = target: T4, CD200R1 (human) (UniProt Q8TD46); experiment: Cell-Int (cell-cell conjugates counted by flow cytometry); two batches of 293-F cells, each transfected with one membrane protein and GFP or RFP, mixed in FreeStyle 293 Expression Medium, 1-2 h at 25°C (Juno/Izumo1 also at 4°C and 37°C and from 10 min to 3 h); percent GFP+ RFP+ double-positive events
T4 sequence: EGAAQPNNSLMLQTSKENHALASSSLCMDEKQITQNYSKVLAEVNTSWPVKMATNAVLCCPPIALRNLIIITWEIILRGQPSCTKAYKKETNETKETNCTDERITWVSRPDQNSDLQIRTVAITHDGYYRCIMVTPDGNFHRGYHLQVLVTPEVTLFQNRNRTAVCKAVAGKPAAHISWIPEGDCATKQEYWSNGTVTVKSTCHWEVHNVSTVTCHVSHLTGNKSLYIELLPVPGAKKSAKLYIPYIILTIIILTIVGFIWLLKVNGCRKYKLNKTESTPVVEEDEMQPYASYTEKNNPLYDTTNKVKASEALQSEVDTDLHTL

CD200R1L (human) = target: T5, CD200R1L (human) (UniProt Q6Q8B3); experiment: as above
T5 sequence: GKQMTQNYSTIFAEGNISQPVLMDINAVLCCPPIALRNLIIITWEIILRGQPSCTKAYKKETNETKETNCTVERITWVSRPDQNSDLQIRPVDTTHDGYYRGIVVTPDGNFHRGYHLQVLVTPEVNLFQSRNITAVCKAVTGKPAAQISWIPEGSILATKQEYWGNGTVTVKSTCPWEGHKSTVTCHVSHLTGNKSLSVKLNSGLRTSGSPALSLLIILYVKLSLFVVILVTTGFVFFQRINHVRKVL

Izumo1 (mouse) = target: T6, Izumo1 (mouse) (UniProt Q9D9J7); experiment: as above
T6 sequence: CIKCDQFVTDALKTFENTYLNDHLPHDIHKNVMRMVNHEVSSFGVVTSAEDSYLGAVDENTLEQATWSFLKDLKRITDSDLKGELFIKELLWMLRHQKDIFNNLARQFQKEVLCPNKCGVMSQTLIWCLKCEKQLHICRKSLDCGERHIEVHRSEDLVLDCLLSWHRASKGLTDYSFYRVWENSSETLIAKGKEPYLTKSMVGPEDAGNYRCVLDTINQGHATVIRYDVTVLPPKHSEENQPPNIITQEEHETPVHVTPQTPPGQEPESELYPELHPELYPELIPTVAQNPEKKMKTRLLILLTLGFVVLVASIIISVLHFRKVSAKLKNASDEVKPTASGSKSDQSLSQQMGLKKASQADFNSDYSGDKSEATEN

MFSD2 = target: T7, MFSD2 (UniProt Q8NA29); experiment: Cell-Int (cell-cell conjugates counted by flow cytometry)
T7 sequence: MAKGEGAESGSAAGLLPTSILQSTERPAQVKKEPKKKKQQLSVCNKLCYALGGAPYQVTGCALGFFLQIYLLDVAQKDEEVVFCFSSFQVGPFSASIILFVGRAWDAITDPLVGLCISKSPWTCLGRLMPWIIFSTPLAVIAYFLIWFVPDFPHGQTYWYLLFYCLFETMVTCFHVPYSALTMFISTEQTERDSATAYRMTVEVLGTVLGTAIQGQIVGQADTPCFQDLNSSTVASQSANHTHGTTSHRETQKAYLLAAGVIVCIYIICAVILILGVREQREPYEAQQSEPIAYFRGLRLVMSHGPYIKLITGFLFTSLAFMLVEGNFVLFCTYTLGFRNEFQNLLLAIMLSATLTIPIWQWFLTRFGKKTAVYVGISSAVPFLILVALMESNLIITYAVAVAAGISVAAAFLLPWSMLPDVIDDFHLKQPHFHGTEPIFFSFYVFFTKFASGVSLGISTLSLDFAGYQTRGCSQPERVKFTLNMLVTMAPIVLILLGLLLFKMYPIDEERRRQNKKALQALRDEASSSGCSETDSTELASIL

PILRα (from UniProt Q9UKJ1 20-303) (receptor)
binding (COLEC12 (human)): binds | binding (NPDC-1 (human)): binds

PILRβ (from UniProt Q9UKJ0 20-227) (receptor)
binding (COLEC12 (human)): no binding | binding (NPDC-1 (human)): no binding

B1: Syncytin-A (protein, UniProt Q5G5D5 18-617)
chain: YSDSWMPLVNLTQHLLQEANSSFSSNCWVCLSIQTQRSLAMPAPLRTWTETPMKLRIMYSARTLSGPYPITDLERRLQNFQPLTPHSSFVNPDQRAIAFLQITSVTGILPILSRITSVRYPDDHVYESAQRPIWGSLSTQTILTSQAPLCISRFFKNSNHATFVGKLPASLCNHTFQLSPSANHQSIDLSSSYAFAPLMAMPGSKWRNPLRFSGPPSLNSGMPHYSCPIDDIHCHTYPTTPWRSCPSFPASTCYNLTLFEPDNSSHPITLSVDTTYFKIKLQGHKDPYPLFQYQPLMGAALSGQYSIWEYEPTVKKNGGITPNIFSHLVSLTYSFCLNSSGVFFLCGNSTYVCLPANWSGVCTLVFQYPDIELLPNNQTISVPLFATVPSSVPASRRKRALPLLPLLAGLGIASALGLGIAGITTSTVYFQQLSKALSDSLDEIATSIISLQDQIDSLAGVVLQNRRALDLIVAERGGTCLFLQEECCFYINQSGVVRHAARKLRERASELGTSSSSWIQWLGLGPWLPSWLTSLMAPILFILVLLVFRPCLLNCLTHSVSRRMSSFIHTTTEGHVDKILLLRESQYKRLPQEPPEEDAV
binding (Ly-6E (mouse) (mouse)): binds | binding [1]: binds

B2: CD200 (ligand, UniProt P41217 31-278)
chain: QVQVVTQDEREQLYTPASLKCSLQNAQEALIVTWQKKKAVSPENMVTFSENHGVVIQPAYKDKINITQLGLQNSTITFWNITLEDEGCYMCLFNTFGFGKISGTACLTVYVQPIVSLHYKFSEDHLNITCSATARPAPMVFWKVPRSGIENSTVTLSHPNGTTSVTSILHIKDPKNQVGKEVICQVLHLGTVTDFKQTVNKGYWFSVPLLLSIVSLVILLVLISILLYWKRHRNQDRGELSQGVQKMT
binding (CD200R1 (human)): binds | binding (CD200R1L (human)): no binding

B3: Juno (protein, UniProt Q9EQF4 20-222)
chain: GDKLLSVCMNSKRHKQEPGPEDELYQECRPWEDNACCTRSTSWEAHLEEPLLFNFSMMHCGLLTPACRKHFIQAICFHECSPNLGPWIQPVVPNGQEEQRVWGVPLCQEDCEDWWRACHSSLTCKSNWLHGWDWSEEKKHCPAHEPCLPFSYHFPTPDDLCEKIWNNTFKASPERRNSGRCLQKWFEPTLSNPNVEVALHFAG
binding (Izumo1 (mouse)): binds

B4: Syncytin-2 (protein, UniProt P60508 16-538)
chain: AYRHPDFPLLEKAQQLLQSTGSPYSTNCWLCTSSSTETPGTAYPASPREWTSIEAELHISYRWDPNLKGLMRPANSLLSTVKQDFPDIRQKPPIFGPIFTNINLMGIAPICVMAKRKNGTNVGTLPSTVCNVTFTVDSNQQTYQTYTHNQFRHQPRFPKPPNITFPQGTLLDKSSRFCQGRPSSCSTRNFWFRPADYNQCLQISNLSSTAEWVLLDQTRNSLFWENKTKGANQSQTPCVQVLAGMTIATSYLGISAVSEFFGTSLTPLFHFHISTCLKTQGAFYICGQSIHQCLPSNWTGTCTIGYVTPDIFIAPGNLSLPIPIYGNSPLPRVRRAIHFIPLLAGLGILAGTGTGIAGITKASLTYSQLSKEIANNIDTMAKALTTMQEQIDSLAAVVLQNRRGLDMLTAAQGGICLALDEKCCFWVNQSGKVQDNIRQLLNQASSLRERATQGWLNWEGTWKWFSWVLPLTGPLVSLLLLLLFGPCLLNLITQFVSSRLQAIKLQTNLSAGRHPRNIQESPF
binding (MFSD2): binds
